Positions count from the first letter of the chain named. Results are given in words; binding and its absence hold for the method and conditions named. Some results given as binding are weak or reduced against the parent protein; the word gives no strength.
Legend:
[1] = biological target: human PSMA on cells (LNCaP) (human) (UniProt Q04609); experiment: flow cytometry, mammalian Fab supernatant on LNCaP cells, anti-human kappa-RPE
[2] = biological target: chimpanzee PSMA on HEK cells (chimpanzee) (UniProt H2Q3K5); experiment: flow cytometry, mammalian Fab supernatant on chimp-PSMA HEK cells (PSMG9), anti-human kappa-RPE
[3] = biological target: chimpanzee PSMA on HEK cells (chimpanzee) (UniProt H2Q3K5); experiment: flow cytometry, Fab supernatant titration
[4] = biological target: human PSMA on cells (LNCaP) (human) (UniProt Q04609); experiment: flow cytometry, Fab supernatant titration
[5] = biological target: human CD3 on human T cells (human) (UniProt P07766); experiment: flow cytometry competition on primary human T cells; competitor AlexaFluor 488 SP34-2 [left panel]
[6] = biological target: human CD3 on human T cells (human) (UniProt P07766); experiment: flow cytometry competition on purified human T cells; competitor 2 ug/mL AF488-labelled SP34-2
[7] = biological target: cynomolgus CD3 on cynomolgus T cells (cynomolgus) (UniProt Q95LI5); experiment: cynomolgus T cells, plate-coated antibody, CD69 read-out
[8] = biological target: human CD3 on human T cells (human) (UniProt P07766); experiment: flow cytometry on primary human T cells
[9] = biological target: human CD3 on human T cells (human) (UniProt P07766); experiment: flow cytometry, primary human T cells [upper left panel]
[10] = biological target: human CD3 on human T cells (human) (UniProt P07766); experiment: competition with AF488 SP34-2 on human T cells, flow cytometry
[11] = biological target: chimpanzee PSMA on HEK cells (chimpanzee) (UniProt H2Q3K5); experiment: flow cytometry, mammalian Fab supernatant
[12] = biological target: cynomolgus CD3 on cynomolgus T cells (cynomolgus) (UniProt Q95LI5); experiment: flow cytometry, purified cynomolgus CD3+ T lymphocytes, AF647 secondary antibody
[13] = biological target: human CD3 on human T cells (human) (UniProt P07766); experiment: flow cytometry, purified human CD3+ T lymphocytes, AF647 secondary antibody
[14] = biological target: human CD33, full length, on cells (human) (UniProt P20138); experiment: flow cytometry on CD33 expressing HEK293F cells

Protein sequences, listed by entry. Tags and fused reporters are not part of them. Lines headed by an entry give the natural chain unless they say otherwise; changes in a name come on top. Residues count along the entry.
UniProt Q04609: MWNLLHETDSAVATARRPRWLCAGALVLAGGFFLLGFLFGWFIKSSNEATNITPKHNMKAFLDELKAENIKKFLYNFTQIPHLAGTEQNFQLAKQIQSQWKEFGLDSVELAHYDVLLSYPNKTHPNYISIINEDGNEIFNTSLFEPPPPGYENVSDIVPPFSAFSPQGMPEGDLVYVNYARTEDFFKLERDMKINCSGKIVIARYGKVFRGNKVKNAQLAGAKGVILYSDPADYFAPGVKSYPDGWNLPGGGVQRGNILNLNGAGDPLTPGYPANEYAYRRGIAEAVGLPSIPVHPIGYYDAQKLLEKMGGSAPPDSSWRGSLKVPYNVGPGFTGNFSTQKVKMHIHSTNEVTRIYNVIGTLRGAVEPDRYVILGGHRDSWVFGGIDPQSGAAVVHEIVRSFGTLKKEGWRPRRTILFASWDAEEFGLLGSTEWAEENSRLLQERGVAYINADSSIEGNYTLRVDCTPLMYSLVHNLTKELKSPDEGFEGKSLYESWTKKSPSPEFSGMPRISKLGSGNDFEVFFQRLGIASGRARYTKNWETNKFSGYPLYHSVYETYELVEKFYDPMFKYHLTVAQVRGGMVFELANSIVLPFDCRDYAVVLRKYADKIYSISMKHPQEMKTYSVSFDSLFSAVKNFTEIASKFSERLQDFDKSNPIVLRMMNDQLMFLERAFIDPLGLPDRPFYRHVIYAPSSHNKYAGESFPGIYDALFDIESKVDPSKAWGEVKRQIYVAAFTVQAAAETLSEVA
UniProt P07766: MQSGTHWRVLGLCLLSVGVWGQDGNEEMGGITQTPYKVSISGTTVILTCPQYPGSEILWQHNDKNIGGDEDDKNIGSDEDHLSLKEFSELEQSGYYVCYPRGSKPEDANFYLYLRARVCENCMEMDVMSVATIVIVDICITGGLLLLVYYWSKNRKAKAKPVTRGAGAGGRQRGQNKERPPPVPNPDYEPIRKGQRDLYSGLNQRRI
UniProt Q95LI5, residues 22-198: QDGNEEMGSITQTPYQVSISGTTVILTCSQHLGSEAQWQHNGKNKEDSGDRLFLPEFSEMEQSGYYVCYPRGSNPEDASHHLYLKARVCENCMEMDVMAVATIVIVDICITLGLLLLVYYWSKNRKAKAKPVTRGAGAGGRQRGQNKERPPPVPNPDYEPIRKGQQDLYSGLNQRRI
UniProt P20138: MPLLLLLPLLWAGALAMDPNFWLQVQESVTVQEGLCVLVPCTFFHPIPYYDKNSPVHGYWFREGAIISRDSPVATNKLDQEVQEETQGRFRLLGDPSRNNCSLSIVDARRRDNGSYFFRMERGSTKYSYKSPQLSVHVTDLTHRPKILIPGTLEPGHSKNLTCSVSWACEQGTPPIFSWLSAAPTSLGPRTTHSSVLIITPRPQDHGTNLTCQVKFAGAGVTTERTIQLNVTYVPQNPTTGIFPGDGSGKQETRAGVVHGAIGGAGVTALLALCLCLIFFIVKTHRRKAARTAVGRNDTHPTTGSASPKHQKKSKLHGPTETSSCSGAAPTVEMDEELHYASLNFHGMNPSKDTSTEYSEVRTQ

Measured: binding

B1: PSMM110 (Fab, V domains shown)
VH: QVQLVQSGAEVKKPGSSVKVSCKASGGTFSSYAISWVRQAPGQGLEWMGWISPYNGNANYAQKFQGRVTITADESTSTAYMELSSLRSEDTAVYYCARVNSAALVWERLDYWGQGTLVTVSS
VL: DIQMTQSPSSLSASVGDRVTITCRASQSIDRWLNWYQQKPGKAPKLLIYAASSLQSGVPSRFSGSGSGTDFTLTISSLQPEDFATYYCQQSPRYPLTFGQGTKVEIK
binds: [1] | [2] | [3] | [4]

B2: BLW-2B4 (antibody, V domains shown)
VH: QVQLQQSGPGLVKPSQTLSLTCAISGDSVFNNNAAWSWIRQSPSRGLEWLGRTYYRSKWLYDYAVSVKSRITVNPDTSRNQFTLQLNSVTPEDTALYYCVRGYSSSFDYWGQGTLVTVSS
VL: QSALTQPASVSGSPGQSITISCTGTSRDIGTYKFVSWYQQHPDKAPKVLLYEVNKRPSGVSSRFSGSKSGNTASLTISGLQAEDQADYHCCSYAGSGTLLFGGGTKLTVL
binds: [5] | [6] | [7] | [8] | [9] | [10]

B3: PSMM52 (Fab, V domains shown)
VH: B1 VH with S52I
VL: B1 VL
binds: [11] | [2] | [3]

B4: PSMM56 (Fab, V domains shown)
VH: EVQLVQSGAEVKKPGESLKISCKGSGYSFTSYWIGWVRQMPGKGLEWMGIIYPGDSDTRYSPSFQGQVTISADKSISTAYLQWSSLKASDTAMYYCARGLPIWYLDYWGQGTLVTVSS
VL: EIVLTQSPATLSLSPGERATLSCRASQSVASDLAWYQQKPGQAPRLLIYFASNRATGIPARFSGSGSGTDFTLTISSLEPEDFAVYYCQQSITWPFTFGQGTKVEIK
binds: [11] | [2] | [3]

B5: BLW-3B4 (antibody, V domains shown)
VH: B2 VH
VL: B2 VL with N54S
binds: [5] | [12] | [13] | [6] | [7] | [8] | [9] | [10]

B6: BLX-1F8 (antibody, V domains shown)
VH: B2 VH with N87K, V100S
VL: B2 VL with R27S, N54S, G70D
binds: [5] | [6] | [8] | [9] | [10]

B7: BLX-3G8 (antibody, V domains shown)
VH: B2 VH with S37T, N87K, V100S
VL: B2 VL with R27S, D28N, N54S
binds: [5] | [12] | [13] | [6] | [7] | [8] | [9] | [10]

B8: BLX-2E9 (antibody, V domains shown)
VH: B2 VH with A34G, V100A
VL: B2 VL with R27S, D28N, N54S
binds: [12] | [7]

B9: C33B914 (antibody, V domains shown)
VH: QVQLVESGGGVVQPGRSLRLSCAASGFTFSYYGMHWVRQAPDKGLEWVAVIWFDGNNKYYADSVKGRFTISRDNSKNTLYLQMNSLRAEDTAVYYCARDRELLFDYWGQGTLVTVSS
VL: SYELTQPPSVSVSPGQTASITCSGDELGDMYACWYQQKPGQSPLVVIYQDSKRPSGIPERFSGSNSGNTATLTISGTQAMDEAAYYCQTWDTRIAVFGGGTNLTVL
binds: [14]

B10: C33B915 (antibody, V domains shown)
VH: EVQLVESGGGLVQPGRSLRLSCAASGFTFDDYAMHWVRQVPGEGLEWVSGISWNGGDMVYADSVKGRFTISRDNAKNSLYLQMNSLRPEDTALYYCVKDMPYFDFLTGSDYYYYGMDVWGQGTTVTVSS
VL: SYELTQPPSVSVSPGQTASITCSGDNLGNEHVCWYHQKPGQSPVLVIYQNNKRPSGIPERFSGSNSGNTATLSISGTQATDEADYYCQAWDSTTAVFGGGTKLTVL
binds: [14]

B11: C33B916 (antibody, V domains shown)
VH: B9 VH with A24T, Y31N, D42G, F53Y, D54V, N56S, N57H, R100G, E101S, L103C
VL: SYELTQPPSVSVSPGQTANISCSGVTLGYNYAYWYQQKPGQSPILVISQDTQRPSGIPERFSGSNSGNTATLTISGTQAMDEAAYYCQAWDITTVLFGGGTKLTVL
binds: [14]

B12: BLX-3F4 (antibody, V domains shown)
VH: B2 VH with Q3R, S66T, N87T, V100A
VL: B2 VL with R27S, D28N, N54S
binds: [7]

— patent US20230322924A1
